Primary screen of a compound library

Protein sequences, listed by entry. Tags and fused reporters are not part of them.
UniProt P9WPC5, whole entry: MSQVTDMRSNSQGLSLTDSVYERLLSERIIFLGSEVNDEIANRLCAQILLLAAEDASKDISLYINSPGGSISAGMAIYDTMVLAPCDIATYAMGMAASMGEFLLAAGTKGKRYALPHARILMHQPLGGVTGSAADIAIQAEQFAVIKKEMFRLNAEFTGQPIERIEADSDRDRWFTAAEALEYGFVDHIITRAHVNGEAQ
UniProt P9WPC3, whole entry partner: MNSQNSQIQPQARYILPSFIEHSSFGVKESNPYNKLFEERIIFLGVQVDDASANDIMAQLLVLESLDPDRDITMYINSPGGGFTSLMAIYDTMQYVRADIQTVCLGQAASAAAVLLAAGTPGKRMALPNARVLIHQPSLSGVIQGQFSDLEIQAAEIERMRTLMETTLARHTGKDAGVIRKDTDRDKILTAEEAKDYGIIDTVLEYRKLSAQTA

From ChEMBL document CHEMBL3988442, “University of Dundee, Small-Polar-MMV Screening Library” (2021).

Results are given as percent effect.
The controls that fix the scale are not given in the record; negative values are as filed.
The compounds are a random part of those screened.

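Protease assay of ClpP1P2, read by the AMC dye that it sets free. Target: ClpP1P2, Mycobacterium tuberculosis (UniProt P9WPC5 and UniProt P9WPC3). Compounds at 50 µM. Higher reads as stronger inhibition, judged from the few compounds that gave an IC50. Most other retested compounds had strongly negative values. Size under these conditions: about 69,000 compounds, about 10 of them at 50% or above in at least one test.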

Cc1ncncc1C(=O)N1CCCN(Cc2nccn2C(C)C)CC1 read 4.574%.
Cc1cc(CN2C[C@H](N3CCOCC3)[C@@H]3OCCC[C@@H]32)oc1C read -10.56%.
COC(=O)CN(Cc1ccccc1C)C(=O)COCC1CC1 read -3.04%.
Cn1nc2c(cc1=O)CN(Cc1coc(-c3ccccc3)n1)CC2 read -32.72%.
CNC(=O)CN1CCO[C@H]2CN(CC3CCOCC3)C[C@H]21 read 3.03%.
Cn1nccc1-c1ncc2c(c1C(=O)O)CCN(Cc1ccccc1)C2 read -4.728%.
COc1ccc(C(=O)N2CCN(C(=O)Cn3nccc3C)CC2)cc1 read 1.752%.
CS(=O)(=O)c1nccn1Cc1ccncc1 read -15.65%.
COc1cc(F)ccc1C(C(=O)O)N(C)CCN1CCCC1 (centres unmarked) read 6.038%.
CC(C)NC(=O)N1CCC2(CC1)COc1ccccc1S(=O)(=O)N(C)C2 read -10.58%.
O=C1NC2(Cc3ccccc31)CN(CC1CCNCC1)C2 read 9.454%.
Cc1cc(C(=O)N2CCn3cnc(COCC4CC4)c3C2)no1 read -2.654%.
CCCn1c(N2CCCC2)nc2c(C)nn(C)c2c1=O read 8.551%.
OC1CCCN(Cc2ccnc(-c3cccnc3)n2)C1 (centres unmarked) read -14.52%.
N#Cc1ccc(C(=O)N2CC[C@H]3[C@H]2CCN3CC2CCOCC2)cc1 read 5.546%.
CCNC(=O)C(C)NC(=O)Nc1ccccc1SC(F)(F)F (centres unmarked) read -13.6%.
c1ccc2nc(N3CCOC(Cn4cccn4)C3)cnc2c1 (centres unmarked) read -79.18%.
O=C(NCc1ccnc(-n2cccn2)c1)C1CC(=O)N(CC2CC2)C1 (centres unmarked) read -40.63%.
O=C(Cc1ccn[nH]1)Nc1cncc(Br)c1O read -4.359%.
CC(C)Cc1n[nH]c(C2CC(=O)N(CC(C)C)C2)n1 (centres unmarked) read -7.105%.
O=C(c1ccc(-n2cnnc2)cc1Cl)N1CCCC2(CCNC2)C1 (centres unmarked) read -1.269%.
COc1ccc(CCC2CCCCN2)cc1OC (centres unmarked) read 4.534%.
O=C(c1ccnnc1)N1CC[C@H](OCC2CC2)[C@@H]1Cc1ccncc1 read -2.44%.
COC1CC2(CCN(Cc3ccc4c(c3)OCO4)CC2)C1 read 8.186%.
c1ccc2c(c1)OCCCC2NCc1nnc2n1CCCCC2 (centres unmarked) read -5.988%.
Cc1noc(C)c1CC(=O)N1CCN(Cc2cscn2)CC1 read -17.47%.
CCOC(=O)N1CCN(c2nc(N3CCCC3)c3ccccc3n2)CC1 read -2.905%.
Cc1ccc(OCCC(=O)N2CCCC(n3nc(C)nc3C)C2)cc1 (centres unmarked) read -10.39%.
CC(C)N(CCNC(=O)N1CCCC(N(C)C)C1)C1CC1 (centres unmarked) read 13.33%.
O=C(C1CCOCC1)N1C[C@H]2CCC[C@@]2(COc2cccnc2)C1 read 5.158%.
CCOc1ccc(C(=O)CCC(=O)NCCc2nncn2CC)cc1C read 9.654%.
Cc1ccc(C(NC(=O)CN2CCc3c(ncn3C)C2)C2CC2)cc1 (centres unmarked) read -4.198%.
O=C(NC[C@H]1C[C@@H]2CN(C(=O)c3ccco3)C[C@@H]2O1)c1ccsc1 read -2.878%.
COCCN(CCOC)C(=O)c1cccc(Cn2nc(C)cc2C)c1 read -8.332%.
Cc1cnn(CC2CN(Cc3nc4ccccc4n3C)CCO2)c1 (centres unmarked) read -29.24%.
CC(C)[C@@H](N)C(=O)NCc1cccnc1N1CCc2ccccc2C1 read -7.364%.
COc1ccccc1NC(=O)c1cnc(C2CCN(C(C)=O)C2)nc1C (centres unmarked) read -0.07652%.
Fc1ccc(C2(CNCCc3cccs3)CCOC2)cc1 (centres unmarked) read 0.9416%.
CCCc1nc(CN2CCCN(Cc3nccn3C)CC2)no1 read -27.59%.
C=C(C)COCCNC(=O)N1CCc2c(cccc2OC)C1 read 6.771%.
COc1cccc(F)c1CN1CCC(c2nc(C)cc(C)n2)C1 (centres unmarked) read 8.183%.
OCC1(CC2CCCCO2)CCN(c2cnc3ccccc3n2)CC1 (centres unmarked) read -65.54%.
COCc1noc(CCNc2nc(CC3CC3)nc3c2CCNCC3)n1 read -1.576%.
O=C(NCCCNc1ccc(C(F)(F)F)cn1)c1ccc(F)cc1Br read -46.84%.
COCCC(=O)N1Cc2[nH]nc(COc3cccnc3)c2C1 read 17.11%.
c1ccc(Cc2n[nH]c(C3CCOC3)n2)cc1 (centres unmarked) read -12.52%.
Cc1nccn1-c1cc(CNC(=O)NCC2CCCO2)ccn1 (centres unmarked) read -4.568%.
Cc1nn(CC(=O)Nc2ccon2)c(C)c1Br read -18.1%.
COCC1CC2(CCNCC2)CN1c1ncccn1 (centres unmarked) read 4.589%.
Cc1nc(C)c(C)c(NCc2cnn3cccnc23)n1 read 12.39%.
COc1ccc(S(=O)(=O)NC(=O)COC2CCCC2)cc1 read -9.549%.
COCC(=O)N1CCC(Nc2ccnc3ccc(Cl)cc23)CC1 read 10.76%.
CC(C)c1nc(CN2CCN(CC(O)c3ccccc3)CC2)no1 (centres unmarked) read -6.029%.
O=S(=O)(C1CC1)N1CCC2(CC1)CC(Oc1cccnc1)CO2 (centres unmarked) read -1.808%.
Cc1cccc(-n2c(C)cc(C(=O)N3CCn4c(C)nnc4C3)c2C)c1 read 1.941%.
COc1ncnc(N)c1CNCC(C)Oc1ccccc1Cl (centres unmarked) read 2.286%.
COc1ccc(NC(=O)c2nc3ccccc3n(C)c2=O)c(OC)c1 read -3.174%.

6 of the entries, repeated:

* CCNC(=O)C(C)NC(=O)Nc1ccccc1SC(F)(F)F (centres unmarked) : -13.6%
* Cc1cc(CN2C[C@H](N3CCOCC3)[C@@H]3OCCC[C@@H]32)oc1C : -10.56%
* Cc1cnn(CC2CN(Cc3nc4ccccc4n3C)CCO2)c1 (centres unmarked) : -29.24%
* O=C(NCc1ccnc(-n2cccn2)c1)C1CC(=O)N(CC2CC2)C1 (centres unmarked) : -40.63%
* O=C(Cc1ccn[nH]1)Nc1cncc(Br)c1O : -4.359%
* Cc1ccc(OCCC(=O)N2CCCC(n3nc(C)nc3C)C2)cc1 (centres unmarked) : -10.39%